“And” between values parts separate entries of the source, which are not always exact repeats. Equal values may be shown once. The hits were mostly taken out for another list; the other results follow. The source made the active and inactive calls. Calls follow the shape of the dose curve; as a rule, active = well fitted activation curve with a large enough effect; inconclusive = small, poorly fitted or top-dose-only effect, or another doubt; inactive = no such curve, though single readings can be large or run the other way.
The molecules below were run against Rap guanine nucleotide exchange factor 4 (Homo sapiens) (UniProt Q8WZA2) (assay: Validation qHTS for agonist of cAMP-regulated guanine nucleotide exchange factor 4 (EPAC2)). Settings: EPAC2 Rap1B BODIPY-GDP exchange, fluorescence; active compounds read high.
Source text: Principle Investigator: Xiaodong Cheng Ph.D.
The University of Texas Medical Branch, […], TX
In multi-cellular eukaryotic organisms, the effects of cAMP are transduced by two ubiquitously-expressed intracellular cAMP receptors, the classic protein kinase A/cAMP-dependent protein kinase (PKA/cAPK) and the more recently discovered exchange protein directly activated by cAMP/cAMP-regulated guanine nucleotide exchange factor (EPAC/cAMP-GEF). Both PKA and EPAC are ubiquitously expressed in all tissues, and an increase in intracellular cAMP levels will lead to the activation of both PKA and EPAC. Therefore, careful dissections of the individual role and relative contribution of EPAC and PKA within the overall cAMP signaling in various model systems are critical for further elucidating the mechanism of cAMP signaling. To date no EPAC-specific antagonists and agonist, as well as isoform-specific agonists have been reported, and developing EPAC-specific pharmacological probes to determine the physiological functions that EPAC play in the overall cAMP-mediated signaling remains a major challenge within the research field. […]
This qHTS will be used to screen the Molecular Libraries Small Molecule Repository (MLSMR) as a concentration-titration series using the NCGC unique quantitative screening (qHTS) platform to find activators for EPAC1. […] Activators are identified by monitoring the change in fluorescence signal as the exchanged free BODIPY-GDP has a reduced fluorescence compared to Rap1-bound BODIPY-GDP. […]
Briefly, three uL of reagents (100 nM EPAC2, 250 nM RAP1B-BODIPY-GDP, 50 uM GDP) were dispensed into a 1536-well Greiner black solid-bottom medium binding assay plate. […] The assay plates were read at 5 minute intervals for 30 minutes in the ViewLux plate reader using 480nm excitation and 540nm emission filters. […]
% is scaled to controls: 0 for no effect and ±100 for the full control effect.
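Also: exchange makes BODIPY-GDP fluorescence drop when released from Rap1B; series mostly up to about 150 µM.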

Amino acid sequences for entries named in this document (tags omitted). A change or cut given only in a name is not applied to a line headed by its entry.
UniProt Q8WZA2: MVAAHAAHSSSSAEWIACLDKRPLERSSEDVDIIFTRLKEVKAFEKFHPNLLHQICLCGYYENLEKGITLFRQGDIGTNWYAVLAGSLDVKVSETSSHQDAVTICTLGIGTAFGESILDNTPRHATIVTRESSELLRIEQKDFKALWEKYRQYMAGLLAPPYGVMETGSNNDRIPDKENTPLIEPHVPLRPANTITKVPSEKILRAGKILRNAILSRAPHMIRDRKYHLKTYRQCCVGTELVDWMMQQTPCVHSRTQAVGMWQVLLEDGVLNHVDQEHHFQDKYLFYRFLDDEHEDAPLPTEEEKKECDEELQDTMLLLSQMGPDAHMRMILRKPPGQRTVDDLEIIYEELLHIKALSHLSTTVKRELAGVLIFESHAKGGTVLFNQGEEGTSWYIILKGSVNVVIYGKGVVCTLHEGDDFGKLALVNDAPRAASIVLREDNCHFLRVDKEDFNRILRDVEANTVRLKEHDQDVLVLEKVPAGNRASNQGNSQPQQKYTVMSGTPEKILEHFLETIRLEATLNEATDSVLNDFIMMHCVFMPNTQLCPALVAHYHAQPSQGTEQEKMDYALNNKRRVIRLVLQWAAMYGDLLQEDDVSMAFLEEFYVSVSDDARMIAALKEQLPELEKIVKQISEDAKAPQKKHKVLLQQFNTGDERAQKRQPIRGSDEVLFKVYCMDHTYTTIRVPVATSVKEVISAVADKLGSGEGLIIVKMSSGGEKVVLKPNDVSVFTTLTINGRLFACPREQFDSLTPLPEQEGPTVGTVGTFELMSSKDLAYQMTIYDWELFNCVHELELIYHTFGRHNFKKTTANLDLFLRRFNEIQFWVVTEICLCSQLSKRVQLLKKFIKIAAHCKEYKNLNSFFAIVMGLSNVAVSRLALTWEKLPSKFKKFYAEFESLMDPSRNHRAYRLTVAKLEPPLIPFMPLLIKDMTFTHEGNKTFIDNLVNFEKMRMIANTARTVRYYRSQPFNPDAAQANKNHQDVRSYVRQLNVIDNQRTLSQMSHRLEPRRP

activation, inactive:
Cc1c(C(=O)NN2CCCCC2)nn(-c2ccc(Cl)cc2Cl)c1-c1ccc(I)cc1 4.09%
Cc1cccc(CCN2CCC(C(=O)c3ccc(NS(C)(=O)=O)cc3)CC2)n1 -23.1% and 4.54% and -10.4%
Nc1ccc(N)c([N+](=O)[O-])c1 -21.7%

From PubChem BioAssay AID1645887 (National Center for Advancing Translational Sciences (NCATS), 2021)
